Some entries share one result that the patent states for a list of compounds. For at least one compound, name, drawing or mass did not settle the structure.
How the values were obtained:
[1] = tested on: EML4-ALK fusion polypeptide v1; experiment: intracellular autophosphorylation of EML4-ALK fusion polypeptide v1 in v1 expressing BA/F3 cells; assay type: cell-based, human
Experimental: Compound A (1 μM, 5 μM and 10 μM) was added to the culture medium of v1 expressing BA/F3 cells (Example 5(1)) or not added, and cultured for 3 hours. In addition, BA/F3 cells expressing FLAG-EML4-ALKv1(K589M) were produced using pMX-iresCD8 vector in which EML4-ALK (K589M) was integrated so that FLAG can be added, and cultured. After culturing, cells were counted and the level of phosphorylation of tyrosine of EML4-ALK fusion polypeptide v1 was measured by immunoblotting using anti-phosphorylated ALK antibody. Further, for the same transfer membrane, immunoblotting analysis by anti-FLAG tag antibody (Eastman Kodak Inc.) was carried out, and total protein quantity of the FLAG attached EML4-ALK fusion polypeptide v1 was measured.
However, the culturing time after the addition of the compounds was 6 hours, and the total protein amount of the EML4-ALK fusion polypeptide v1 was measured using anti-ALK antibody. In addition, the amount of phosphorylation was calculated by quantitating as in Example 7(2). Also, for compound A, the amount of phosphorylation was calculated by quantitating in experiment under this condition. The rate of inhibition was calculated from the amount of phosphorylation when the compound was added, using the value when the compound was not added (the solvent of the compound, DMSO was added) as a control (0% inhibition).

[2] = tested on: EML4-ALK fusion polypeptide v1; experiment: in vitro kinase activity (autophosphorylation) of purified EML4-ALK fusion polypeptide v1, immunoblotting with anti-phosphorylated ALK antibody; assay type: biochemical, human
Experimental: The v1 expressing BA/F3 cells (Example 5(1)) were cultured in RPM1640 medium containing 10% of fetal bovine scrum to obtain 2.7×10^9 cells. After washing 3 times with PBS, cells were lysed in a lysis solution (50 mM Tris HCl (pH7.4), 150 mM NaCl, 1% Triton×100, 5 mM EDTA, 5 mM EGTA, 1 mM NaVO4, 1 mM DTT and protease inhibitor cocktail complete). The EML4-ALK fusion polypeptide v1 present in the supernatant obtained after a centrifugation was purified using ANTI-FLAG M2 Affinity Gel (SIGMA-ALDRICH Inc) according to the method described in the product information document. For washing and elution, the washing solution (50 mM Tris.HCl (pH7.4), 250 mM NaCl, 0.05% Brij35, 1 mM EDTA, 1 mM EGTA, 1 mM NaVO4, 1 mM DTT, complete) and the elution solution (50 mM Tris.HCl (pH7.4), 150 mM NaCl, 0.05% Brij35, 1 mM DTT, 0.5 mg/mL FLAG peptide) were used, respectively. Immunoblotting using anti-ALK antibody and anti FLAG M2 antibody (SIGMA-ALDRICH Inc.) and silver staining were carried out for the eluate to detect the EML4-ALK fusion polypeptide v1.
The EML4-ALK fusion polypeptide v1 purified as described above was diluted in a reaction solution (15 mM Tris HCl (pH7.4), 0.25 mM MgCl2, 0.01% Tween-20, 2 mM DTT), and then ATP was not added or ATP 20 μM was added. The respective mixtures were reacted at room temperature for 1 hour. After the reaction, the auto phosphorylated EML4-ALK fusion polypeptide v1 and the EML4-ALK fusion polypeptide v1 were detected by immunoblotting using anti-phosphorylated ALK antibody, which recognizes specifically the product phosphorylated at the 1604th tyrosine residue of ALK, and anti-ALK antibody, and quantitated by an image analysis system (VersaDoc Imaging System; Bio-Rad Inc.). The amount of phosphorylation was calibrated by dividing the count of the autophosphorylated EML4-ALK fusion polypeptide v1 by the count of the EML4-ALK fusion polypeptide v1. As the result, the autophosphorylated EML4-ALK fusion polypeptide v1 band was detected at the location of about 130 kDa under the condition of ATP addition, and the amount of phosphorylation was increased by about 205 folds compared to no-ATP addition.
The inhibitory effect of compound A-D against the in vitro kinase activity of the EML4-ALK fusion polypeptide v1 was investigated using anti-phosphorylated ALK antibody and the kinase activity detection kit. Respective compounds were added to the reaction solution containing the EML4-ALK fusion polypeptide v1 at a final concentration of 10 μM or 10 nM, and then the reaction was carried out with or without the addition of ATP. The rest of the operations were carried out according to the method (2) described above. […] The inhibition (%) of the kinase activity of the EML4-ALK fusion polypeptide v1 by a compound was calculated by the following formula. […]

[3] = at a concentration of 10 μM or less
[4] = at a concentration of 0.1 μM or less

SMILES | inhibition of the EML4-ALK fusion polypeptide v1 activity (cell type screening) [1, 3] [%] | inhibition of the activity of the EML4-ALK fusion polypeptide v1 (in vitro) [2, 3] [%] | inhibition of the EML4-ALK fusion polypeptide v1 activity (cell type screening) [1, 4] [%] | inhibition of the activity of the EML4-ALK fusion polypeptide v1 (in vitro) [2, 4] [%]
COc1cc2ncnc(Nc3ccc(O)c(Br)c3)c2cc1OC [compound A, 4-[(3′-Bromo-4′-hydroxyphenyl)amino]-6,7-dimethoxyquinazoline] | ≥ 50 | ≥ 50 |  | 
O=C(COc1ccc(OC(F)(F)F)cc1)NCc1nc(C(=O)NCCc2cccc(Cl)c2)cs1 [compound B, N-[2-(3-chlorophenyl)ethyl]-2-[({[4-(trifluoromethoxy)phenoxy]acetyl}amino)methyl]-1,3-thiazole-4-carboxamide] | ≥ 50 | ≥ 50 |  | 
COc1cc(N2CCC(N3CCN(C)CC3)CC2)ccc1Nc1ncc(Cl)c(Nc2ccccc2S(=O)(=O)C(C)C)n1 [compound C, 5-chloro-N^4-[2-(isopropylsulfonyl)phenyl]-N^2-{2-methoxy-4-[4-(4-methylpiperazin-1-yl)piperidin-1-yl]phenyl}pyrimidine-2,4-diamine] |  |  | ≥ 50 | ≥ 50
CNS(=O)(=O)c1ccccc1Nc1nc(Nc2ccc(N3CCN(C)CC3)cc2OC)ncc1Br [compound D, 2-[(5-bromo-2-{[2-methoxy-4-(4-methylpiperazin-1-yl)phenyl]amino}pyrimidin-4-yl)amino]-N-methylbenzenesulfonamide] |  |  | ≥ 50 | ≥ 50

Source: patent publication US9932589B2, “EML4-ALK fusion gene” (Astellas Pharma Inc., priority 2006, dated 2018)
